Reference: patent US11666561B2, “Compounds for use in regulating follicle maturation” (AARHUS UNIVERSITET, priority 2017, dated 2023)
“Also recorded” adds a separate entry of the source.

Test system: primordial-to-primary follicle transition
Assay: In vitro organ culture of mouse ovaries with compound, H&E histology and counting of primordial, primary and secondary follicles
Conditions: 10 mM NCG, 96 hours; no statistical results
Description: Ovaries obtained from mice were washed twice with culture medium. Antagonists or agonists to be tested were dissolved in suitable solvents and added to the medium. As a control medium comprising solvent without the antagonist or agonist was used. One of the ovaries was cultured in a control medium and another was cultured with the antagonist or agonist. The tested antagonists or agonists and their concentrations are outlined in table 2.
Ovaries were incubated with antagonist at 37° C. and 5% CO2 for 24 and 96 hours, respectively (see table 3).
Cultures ovaries were fixed, embedded in paraffin and sliced microscopy. The sectioned ovaries were stained with hematoxylin and eosin (H&E) to visualize the morphology of the ovary by microscopy.
The number of primordial, primary and secondary follicles was determined, and it was determined whether the antagonist or agonist was capable of regulating folliculogenesis.
C57BL/6j×CBA F1 hybrid mice (Janvier Labs, France) were housed and bred in the animal facilities at Department of Biomedicine, Aarhus University. […]
The number of follicles at each developmental stage was counted using an inverted research microscope (DM14000B, Leica Microsystems, Germany). The follicles of every 3rd to 4th section of each ovary were counted and the distribution of follicles in the different stages in percentage was determined.

## NC(=O)N[C@@H](CCC(=O)O)C(=O)O [NCG, (2S)-2-(carbamoylamino)pentanedioic acid]
  shape of follicles and oocytes (morphology): follicles were very well shaped and oocytes were intact; also recorded: oocytes seemed to be more naturally shaped than any of the other treatment forms
